Data published in US20160000930A1 (University of Texas, published 2016).
Results are given in words; binding and its absence hold for the method and conditions named. Binding calls can cover weak binding; strength is not graded here. Tags and fused reporters may be left off the sequences shown.

Columns and labels:
[1] = molecular target: recombinant bacterially-purified mouse ΔDCN (His6-tagged, amino acids 45-354 of mouse DCN) (mouse); assay: ELISA, ΔDCN coated, FLAG-resistin detected with anti-FLAG (FIG. 6D)
[2] = molecular target: recombinant bacterially-purified mouse ΔDCN (His6-tagged, amino acids 45-354 of mouse DCN) (mouse); assay: ELISA, OD450 against FLAG-tagged protein concentration (FIG. 6D)

B1: FLAG-tagged mouse resistin produced in HEK293 cells (Enzo Life Sciences) (ligand, UniProt Q99P87 21-114, looked up)
chain: SSMPLCPIDEAIDKKIKQDFNSLFPNAIKNIGLNCWTVSSRGKLASCPEGTAVLSCSCGSACGSWDIREEKVCHCQCARIDWTAARCCKLQVAS
notes: Bought protein; also called FLAG-resistin; ADSF; not shown: FLAG tag
Q: Which results are given for B1?
A: binding [1]: binds; binding [2]: binds
